Data from US20120059162A1, “FUSED IMIDAZOLE DERIVATIVE HAVING TTK INHIBITORY ACTION” (Oncotherapy Science, Inc., priority 2009, published 2012).

Protein sequences, listed by entry. Tags and fused reporters are not part of them.
UniProt P33981, whole entry: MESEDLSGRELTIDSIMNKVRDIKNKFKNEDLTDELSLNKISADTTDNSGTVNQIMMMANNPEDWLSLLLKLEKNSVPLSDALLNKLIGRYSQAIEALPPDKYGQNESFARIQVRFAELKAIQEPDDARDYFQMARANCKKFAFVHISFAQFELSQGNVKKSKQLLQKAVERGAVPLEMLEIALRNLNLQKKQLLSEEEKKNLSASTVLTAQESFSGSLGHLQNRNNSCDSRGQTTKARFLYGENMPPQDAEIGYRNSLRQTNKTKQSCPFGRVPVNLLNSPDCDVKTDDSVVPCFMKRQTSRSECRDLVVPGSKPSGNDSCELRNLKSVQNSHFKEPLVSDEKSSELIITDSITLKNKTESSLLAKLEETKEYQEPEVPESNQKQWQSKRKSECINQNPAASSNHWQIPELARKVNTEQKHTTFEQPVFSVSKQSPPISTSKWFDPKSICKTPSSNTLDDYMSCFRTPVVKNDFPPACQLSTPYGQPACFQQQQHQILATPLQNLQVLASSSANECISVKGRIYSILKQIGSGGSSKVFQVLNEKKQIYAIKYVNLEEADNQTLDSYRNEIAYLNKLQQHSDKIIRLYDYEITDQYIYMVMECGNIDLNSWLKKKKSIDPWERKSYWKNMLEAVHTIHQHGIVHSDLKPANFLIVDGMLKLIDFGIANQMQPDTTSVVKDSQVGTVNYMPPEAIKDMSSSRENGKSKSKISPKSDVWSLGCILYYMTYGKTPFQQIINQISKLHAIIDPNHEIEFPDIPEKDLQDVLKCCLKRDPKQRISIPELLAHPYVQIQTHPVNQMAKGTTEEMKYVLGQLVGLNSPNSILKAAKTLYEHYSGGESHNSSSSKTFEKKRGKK

Target: TTK (Homo sapiens, UniProt P33981)
Test: TTK assay: screening of TTK kinase activity suppressing action using p38 MAPK peptide
Assay type: biochemical
Conditions: read-out: TTK IC50; p38 MAPK peptide substrate

O=C(NC1CC1)c1ccc(-c2cnc3c(NCC4CCOCC4)cc(N4CCC(O)C4)nn23)cc1 (stereo not shown)
IC50: 29.4 nM

Structures were worked out from names or drawings and are uncertain.
